Experimental data: article PMC10238393 (2023)

Biological target: LPHN2 Lec/Olf domain (human)
Assay: ELISA; solid-phase binding assay: LPHN2 extracellular domain variants (100 nM) coated on MaxiSorp 96-well plates, 1 h room temperature, blocked with 1% BSA; 0.001-10 μM LRG1 forms added; detected with anti-LRG1 antibody and peroxidase-conjugated secondary antibody; both purified

binding: binds
B1: LRG1 N325D mutant (protein, UniProt P02750 36-347)
chain: VTLSPKDCQVFRSDHGSSISCQPPAEIPGYLPADTVHLAVEFFNLTHLPANLLQGASKLQELHLSSNGLESLSPEFLRPVPQLRVLDLTRNALTGLPPGLFQASATLDTLVLKENQLEVLEVSWLHGLKALGHLDLSGNRLRKLPPGLLANFTLLRTLDLGENQLETLPPDLLRGPLQLERLHLEGNKLQVLGKDLLLPQPDLRYLFLNGNKLARVAAGAFQGLRQLDMLDLSNNSLASVPEGLWASLGQPNWDMRDGFDISGNPWICDQNLSDLYRWLQAQKDKMFSQDDTRCAGPEAVKGQTLLAVAKSQ

No constants are given. Whether binding was seen depends on the method and setting. A result given as binding can be weak or reduced; the word gives no strength.
